# Measurements published in the supplement of paper PMC8728848.
# The other results are listed elsewhere or left out.
# B1: PhypaEULS3 (Physcomitrella patens) (protein)
# chain: MLPVRLHCKADPNFNLAAVPGQGPVMVPFSPNDDFQVWYKDVTMSTRVKDETGSSAFSLINKATGQALRHAPEDLAQCLLADYDSNALDQTVLWTMSEDMGQGYCCIRLASQITRNLDVFRGDKKSGGVKEGSPVITFAWKKQDNQIWKMITAILEQKLISEEDLNSAVDHHHHHH
# Tests used:
# Experiment in all cases: glycan array binding signal (z-score within array); higher = stronger binding
# Conditions in all cases: glycan notation: IUPAC condensed, linker removed
# Neu5Ac(a2-8)Neu5Ac = biological target: Neu5Ac(a2-8)Neu5Ac
# Outline: (§1)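 Negative Z-scores can be read as non-binding. The Z-score is calculated within each array and then averaged across arrays of one protein sequence at different concentrations or buffers and across linkers. Arrays, 3228 in all, were curated from the Consortium for Functional Glycomics database and kept only where the protein sequence was available.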
# [1] = biological target: Neu5Ac(a2-8)Neu5Ac(a2-3)Gal(b1-3)GalNAc(b1-4)[Neu5Ac(a2-3)]Gal(b1-4)Glc
# Outline: as §1
# [2] = biological target: Neu5Ac(a2-8)Neu5Ac(a2-3)Gal(b1-3)GalNAc(b1-4)[Neu5Ac(a2-8)Neu5Ac(a2-3)]Gal(b1-4)Glc
# Outline: as §1
# [3] = biological target: Neu5Ac(a2-8)Neu5Ac(a2-3)Gal(b1-4)Glc
# Outline: as §1
# [4] = biological target: Neu5Ac(a2-8)Neu5Ac(a2-3)Gal(b1-4)GlcNAc
# Outline: as §1
# [5] = biological target: Neu5Ac(a2-8)Neu5Ac(a2-3)[Gal(b1-3)GalNAc(b1-4)]Gal(b1-4)Glc
# Outline: as §1
# [6] = biological target: Neu5Ac(a2-8)Neu5Ac(a2-3)[GalNAc(b1-4)]Gal(b1-4)Glc
# Outline: as §1
# [7] = biological target: Neu5Ac(a2-8)Neu5Ac(a2-8)Neu5Ac
# Outline: as §1
# [8] = biological target: Neu5Ac(a2-8)Neu5Ac(a2-8)Neu5Ac(a2-3)Gal(b1-4)Glc
# Outline: as §1
# [9] = biological target: Neu5Ac(a2-8)Neu5Ac(a2-8)Neu5Ac(a2-3)[Gal(b1-3)GalNAc(b1-4)]Gal(b1-4)Glc
# Outline: as §1
# [10] = biological target: Neu5Ac(a2-8)Neu5Ac(a2-8)Neu5Ac(a2-3)[GalNAc(b1-4)]Gal(b1-4)Glc
# Outline: as §1
# [11] = biological target: Neu5Ac(a2-8)Neu5Ac(a2-8)Neu5Ac(a2-8)Neu5Ac(a2-3)[GalNAc(b1-4)]Gal(b1-4)Glc
# Outline: as §1
# [12] = biological target: Neu5Ac(a2-8)Neu5Gc(a2-3)Gal(b1-4)GlcNAc
# Outline: as §1
# [13] = biological target: Neu5Ac(b2-6)Gal(b1-4)GlcNAc
# Outline: as §1
# Neu5Ac(b2-6)GalNAc = biological target: Neu5Ac(b2-6)GalNAc
# Outline: as §1
# [14] = biological target: Neu5Ac9Ac(a2-3)Gal(b1-3)GlcNAc
# Outline: as §1
# [15] = biological target: Neu5Ac9Ac(a2-3)Gal(b1-4)GlcNAc
# Outline: as §1
# [16] = biological target: Neu5Ac9Ac(a2-6)Gal(b1-4)GlcNAc
# Outline: as §1
# [17] = biological target: Neu5Gc(a2-3)Gal(b1-3)GlcNAc
# Outline: as §1
# [18] = biological target: Neu5Gc(a2-3)Gal(b1-3)[Fuc(a1-4)]GlcNAc
# Outline: as §1
# Neu5Gc(a2-3)Gal(b1-4)Glc = biological target: Neu5Gc(a2-3)Gal(b1-4)Glc
# Outline: as §1
# [19] = biological target: Neu5Gc(a2-3)Gal(b1-4)GlcNAc
# Outline: as §1
# [20] = biological target: Neu5Gc(a2-3)Gal(b1-4)GlcNAc(b1-3)Gal(b1-4)GlcNAc(b1-2)Man(a1-3)[Neu5Gc(a2-3)Gal(b1-4)GlcNAc(b1-3)Gal(b1-4)GlcNAc(b1-2)Man(a1-6)]Man(b1-4)GlcNAc(b1-4)GlcNAc
# Outline: as §1
# [21] = biological target: Neu5Gc(a2-3)Gal(b1-4)[Fuc(a1-3)]GlcNAc
# Outline: as §1
# [22] = biological target: Neu5Gc(a2-6)Gal(b1-4)GlcNAc
# Outline: as §1
# Neu5Gc(a2-6)GalNAc = biological target: Neu5Gc(a2-6)GalNAc
# Outline: as §1
# [23] = biological target: Neu5Gc(a2-8)Neu5Ac(a2-3)Gal(b1-4)GlcNAc
# Outline: as §1
# [24] = biological target: Neu5Gc(a2-8)Neu5Gc(a2-3)Gal(b1-4)GlcNAc
# Outline: as §1
# [25] = biological target: Neu5Gc(a2-8)Neu5Gc(a2-3)Gal(b1-4)GlcNAc(b1-3)Gal(b1-4)GlcNAc
# Outline: as §1
# [26] = biological target: Neu5Gc(a2-8)Neu5Gc(a2-6)Gal(b1-4)GlcNAc
# Outline: as §1
# [27] = biological target: Neu5Gc(b2-6)Gal(b1-4)GlcNAc
# Outline: as §1
binder,measurement,setting,value
B1,glycan array binding signal (z-score),Neu5Ac(a2-8)Neu5Ac,-0.256
same,glycan array binding signal (z-score),[1],-0.561
same,glycan array binding signal (z-score),[2],0.367
same,glycan array binding signal (z-score),[3],0.079
same,glycan array binding signal (z-score),[4],1.37
same,glycan array binding signal (z-score),[5],-0.838
same,glycan array binding signal (z-score),[6],-0.005
same,glycan array binding signal (z-score),[7],-0.561
same,glycan array binding signal (z-score),[8],-0.311
same,glycan array binding signal (z-score),[9],-1.74
same,glycan array binding signal (z-score),[10],-1.16
same,glycan array binding signal (z-score),[11],0.99
same,glycan array binding signal (z-score),[12],-1.07
same,glycan array binding signal (z-score),[13],0.796
same,glycan array binding signal (z-score),Neu5Ac(b2-6)GalNAc,-0.204
same,glycan array binding signal (z-score),[14],1.59
same,glycan array binding signal (z-score),[15],0.147
same,glycan array binding signal (z-score),[16],0.138
same,glycan array binding signal (z-score),[17],-0.426
same,glycan array binding signal (z-score),[18],0.692
same,glycan array binding signal (z-score),Neu5Gc(a2-3)Gal(b1-4)Glc,0.964
same,glycan array binding signal (z-score),[19],0.278
same,glycan array binding signal (z-score),[20],0.162
same,glycan array binding signal (z-score),[21],-1.36
same,glycan array binding signal (z-score),[22],-0.106
same,glycan array binding signal (z-score),Neu5Gc(a2-6)GalNAc,2.46
same,glycan array binding signal (z-score),[23],-1.74
same,glycan array binding signal (z-score),[24],-0.693
same,glycan array binding signal (z-score),[25],-0.248
same,glycan array binding signal (z-score),[26],-1.13
same,glycan array binding signal (z-score),[27],-0.319

# Exported bar-delimited: entries from further up
binder | measurement | setting | value
B1 | glycan array binding signal (z-score) | [5] | -0.838
same | glycan array binding signal (z-score) | [6] | -0.005
